Results are given in words; binding and its absence hold for the method and conditions named. A result given as binding can be weak or reduced; the word gives no strength.
Assays:
[1] = molecular target: T1, adenosine A2B (A2B) receptor-TEV (human) (UniProt P29275); assay: LinkLight assay (TEV protease on one partner cuts permuted luciferase on the other; luminescence end point); HEK293 cells stably expressing GPCR-TEV and 14-3-3ε-pLuc; serum-free DMEM, serial 1:3 dilution of agonist, 37 °C, 240 min unless otherwise specified; agonist-induced signals
T1 sequence: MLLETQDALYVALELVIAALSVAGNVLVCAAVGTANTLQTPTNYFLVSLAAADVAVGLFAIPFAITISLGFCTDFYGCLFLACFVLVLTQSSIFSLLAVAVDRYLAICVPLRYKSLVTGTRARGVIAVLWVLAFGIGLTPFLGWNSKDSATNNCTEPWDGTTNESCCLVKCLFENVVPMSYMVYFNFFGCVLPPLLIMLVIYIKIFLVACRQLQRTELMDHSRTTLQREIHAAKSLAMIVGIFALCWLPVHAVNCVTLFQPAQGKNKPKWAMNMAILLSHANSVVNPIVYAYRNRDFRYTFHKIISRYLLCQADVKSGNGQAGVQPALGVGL

[2] = molecular target: T2, neuropeptide S receptor 1 (NPSR1)-TEV (human) (UniProt Q6W5P4); assay: as above
T2 sequence: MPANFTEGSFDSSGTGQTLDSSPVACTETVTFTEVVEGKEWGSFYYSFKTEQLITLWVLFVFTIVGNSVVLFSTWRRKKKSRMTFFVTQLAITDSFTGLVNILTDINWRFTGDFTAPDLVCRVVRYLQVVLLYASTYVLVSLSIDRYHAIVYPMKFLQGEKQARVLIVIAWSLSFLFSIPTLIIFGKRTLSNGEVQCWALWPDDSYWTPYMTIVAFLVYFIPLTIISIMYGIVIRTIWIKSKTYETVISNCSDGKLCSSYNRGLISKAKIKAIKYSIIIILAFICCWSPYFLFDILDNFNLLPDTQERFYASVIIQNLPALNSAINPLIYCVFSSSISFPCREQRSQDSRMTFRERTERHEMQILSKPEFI

[3] = molecular target: T3, sphingosine-1-phosphate receptor 4 (S1PR4)-TEV (human) (UniProt O95977); assay: as above
T3 sequence: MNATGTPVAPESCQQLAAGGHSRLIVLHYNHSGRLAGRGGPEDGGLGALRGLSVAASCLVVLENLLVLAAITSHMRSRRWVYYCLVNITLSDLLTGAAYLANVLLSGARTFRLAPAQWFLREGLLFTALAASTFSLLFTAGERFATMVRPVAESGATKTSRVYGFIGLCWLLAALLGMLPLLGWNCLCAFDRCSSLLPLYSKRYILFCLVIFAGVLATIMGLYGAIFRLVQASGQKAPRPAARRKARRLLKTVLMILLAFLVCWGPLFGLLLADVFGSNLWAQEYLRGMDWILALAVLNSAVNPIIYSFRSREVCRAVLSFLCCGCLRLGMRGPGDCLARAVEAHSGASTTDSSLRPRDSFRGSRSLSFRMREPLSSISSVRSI

[4] = molecular target: T4, galanin receptor 1 (GALR1)-TEV (human) (UniProt P47211); assay: LinkLight assay (TEV protease on one partner cuts permuted luciferase on the other; luminescence end point); HEK293 cells stably expressing GPCR-TEV and 14-3-3ε-pLuc; serum-free DMEM, serial 1:3 dilution of ligand, 37 °C, 180 min unless otherwise specified; signal present without agonist and diminished by agonist (for MOR1 raised by naloxone and naltrexone)
T4 sequence: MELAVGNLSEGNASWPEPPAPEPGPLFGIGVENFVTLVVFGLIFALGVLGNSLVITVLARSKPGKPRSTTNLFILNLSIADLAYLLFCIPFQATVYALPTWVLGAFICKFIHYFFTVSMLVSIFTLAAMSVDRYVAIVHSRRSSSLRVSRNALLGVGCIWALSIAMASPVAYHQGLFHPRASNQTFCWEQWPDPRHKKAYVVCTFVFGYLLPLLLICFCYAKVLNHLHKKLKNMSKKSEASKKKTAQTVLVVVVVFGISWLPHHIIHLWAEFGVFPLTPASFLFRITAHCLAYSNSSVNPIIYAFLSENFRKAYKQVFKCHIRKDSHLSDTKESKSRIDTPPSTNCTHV

Measured: binding

14-3-3ε-pLuc (14-3-3ε-permuted luciferase)
binds: [1] | [2] | [3] | [4]

From paper PMC6673703, “14-3-3 signal adaptor and scaffold proteins mediate GPCR trafficking” (Scientific Reports, 2019)
